Test results taken from PMC5418627.
Results are given in words; binding and its absence hold for the method and conditions named. Binding seen in cells or lysates may run through a third protein. Some binding calls cover weakened binding; strength is not graded here. Sequences can lack the tags named with a protein.

The chains behind the UniProt entries cited, without tags or fusion partners.
UniProt P61077: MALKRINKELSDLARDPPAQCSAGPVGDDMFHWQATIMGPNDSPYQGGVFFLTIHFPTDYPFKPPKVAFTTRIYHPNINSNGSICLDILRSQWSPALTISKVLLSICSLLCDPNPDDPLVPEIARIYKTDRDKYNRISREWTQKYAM

T1: Flag-Ube2N (human), P61088
T1 chain: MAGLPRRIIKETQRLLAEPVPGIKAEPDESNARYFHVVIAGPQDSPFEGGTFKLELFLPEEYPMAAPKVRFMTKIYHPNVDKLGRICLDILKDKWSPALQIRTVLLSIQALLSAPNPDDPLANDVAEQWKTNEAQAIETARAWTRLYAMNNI

T2: Flag-Riplet (human) (UniProt Q8IUD6)
T2 sequence: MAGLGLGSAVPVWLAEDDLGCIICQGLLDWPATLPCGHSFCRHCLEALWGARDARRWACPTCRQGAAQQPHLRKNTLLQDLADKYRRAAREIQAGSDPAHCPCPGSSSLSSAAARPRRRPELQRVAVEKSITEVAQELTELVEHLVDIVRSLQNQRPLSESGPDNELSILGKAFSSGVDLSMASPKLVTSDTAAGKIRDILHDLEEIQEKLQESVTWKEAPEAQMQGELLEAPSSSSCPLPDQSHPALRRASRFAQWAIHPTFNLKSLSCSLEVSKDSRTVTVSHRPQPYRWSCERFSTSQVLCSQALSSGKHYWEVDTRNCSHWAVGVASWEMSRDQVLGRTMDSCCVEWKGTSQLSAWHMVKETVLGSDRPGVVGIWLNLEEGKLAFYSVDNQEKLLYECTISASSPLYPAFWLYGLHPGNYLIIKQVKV

T3: Flag-Riplet-SPRY (aa 261-428) (human) (UniProt Q8IUD6)
T3 sequence: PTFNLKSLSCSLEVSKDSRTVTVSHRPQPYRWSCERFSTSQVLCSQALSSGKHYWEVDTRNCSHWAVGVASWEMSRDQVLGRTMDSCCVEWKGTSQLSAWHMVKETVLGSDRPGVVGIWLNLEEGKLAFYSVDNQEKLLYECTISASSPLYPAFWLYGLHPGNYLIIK

T4: Flag-RIG-I-2CARD (aa 1-200) (human) (UniProt O95786)
T4 sequence: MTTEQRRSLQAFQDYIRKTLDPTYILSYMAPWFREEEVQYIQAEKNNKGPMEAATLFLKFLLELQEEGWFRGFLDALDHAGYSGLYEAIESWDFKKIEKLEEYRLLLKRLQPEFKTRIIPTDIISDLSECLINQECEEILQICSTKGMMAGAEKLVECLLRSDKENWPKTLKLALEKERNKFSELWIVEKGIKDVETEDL

T5: Flag-RIG-I (full length) (human) (UniProt O95786)
T5 sequence: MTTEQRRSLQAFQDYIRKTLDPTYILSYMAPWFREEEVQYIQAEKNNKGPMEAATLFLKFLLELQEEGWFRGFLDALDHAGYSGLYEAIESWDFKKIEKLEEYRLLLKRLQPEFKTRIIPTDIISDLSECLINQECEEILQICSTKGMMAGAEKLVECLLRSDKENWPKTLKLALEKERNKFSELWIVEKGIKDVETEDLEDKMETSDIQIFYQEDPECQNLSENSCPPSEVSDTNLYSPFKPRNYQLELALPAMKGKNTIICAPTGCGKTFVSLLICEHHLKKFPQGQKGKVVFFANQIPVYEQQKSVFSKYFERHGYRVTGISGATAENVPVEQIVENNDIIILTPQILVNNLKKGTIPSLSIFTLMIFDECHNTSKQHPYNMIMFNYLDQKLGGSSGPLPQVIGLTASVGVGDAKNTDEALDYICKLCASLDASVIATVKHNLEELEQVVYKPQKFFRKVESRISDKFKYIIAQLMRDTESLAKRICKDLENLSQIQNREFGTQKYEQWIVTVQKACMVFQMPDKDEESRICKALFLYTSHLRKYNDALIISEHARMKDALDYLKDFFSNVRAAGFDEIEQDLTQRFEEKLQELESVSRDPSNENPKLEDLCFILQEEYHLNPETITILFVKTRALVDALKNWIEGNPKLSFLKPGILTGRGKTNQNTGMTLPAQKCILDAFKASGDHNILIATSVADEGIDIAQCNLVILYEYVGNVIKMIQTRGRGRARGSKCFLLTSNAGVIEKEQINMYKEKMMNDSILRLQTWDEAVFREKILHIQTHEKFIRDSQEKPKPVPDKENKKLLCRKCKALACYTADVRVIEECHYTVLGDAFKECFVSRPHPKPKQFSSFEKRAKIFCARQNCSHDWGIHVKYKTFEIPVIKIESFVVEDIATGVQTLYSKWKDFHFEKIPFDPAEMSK

T6: Flag-RIG-I-ΔRD (aa 1-794) (human) (UniProt O95786)
T6 sequence: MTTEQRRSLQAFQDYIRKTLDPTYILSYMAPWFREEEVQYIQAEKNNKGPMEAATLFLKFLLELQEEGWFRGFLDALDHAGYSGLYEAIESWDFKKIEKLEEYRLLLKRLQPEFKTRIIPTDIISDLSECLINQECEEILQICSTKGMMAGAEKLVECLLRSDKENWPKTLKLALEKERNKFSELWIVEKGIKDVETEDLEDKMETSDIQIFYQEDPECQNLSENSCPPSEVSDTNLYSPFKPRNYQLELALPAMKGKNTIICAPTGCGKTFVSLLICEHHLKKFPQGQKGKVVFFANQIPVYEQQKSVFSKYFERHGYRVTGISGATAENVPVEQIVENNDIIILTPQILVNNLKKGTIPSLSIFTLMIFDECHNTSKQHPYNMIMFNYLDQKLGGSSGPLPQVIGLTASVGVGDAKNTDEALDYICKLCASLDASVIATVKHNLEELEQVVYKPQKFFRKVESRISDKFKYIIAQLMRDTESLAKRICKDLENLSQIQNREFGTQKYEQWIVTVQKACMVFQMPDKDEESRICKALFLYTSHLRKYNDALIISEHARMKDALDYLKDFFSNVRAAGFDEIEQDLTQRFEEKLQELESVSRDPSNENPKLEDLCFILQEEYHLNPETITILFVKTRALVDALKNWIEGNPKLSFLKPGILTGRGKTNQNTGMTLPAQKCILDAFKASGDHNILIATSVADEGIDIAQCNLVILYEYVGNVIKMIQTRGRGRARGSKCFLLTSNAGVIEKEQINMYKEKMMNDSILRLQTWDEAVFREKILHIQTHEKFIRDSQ


Tests used:
Assay in all cases: co-IP
[1] = molecular target: T1, Flag-Ube2N (human), P61088; details: remark: other sources report otherwise
Flag-Riplet (human) = molecular target: T2, Flag-Riplet (human)
Flag-Ube2D3 (human) = Flag-Ube2D3 (human) (UniProt P61077)
[2] = molecular target: T3, Flag-Riplet-SPRY (aa 261-428) (human)
Flag-Ube2N (human) = Flag-Ube2N (human) (UniProt P61088)
[3] = molecular target: T4, Flag-RIG-I-2CARD (aa 1-200) (human)
[4] = molecular target: T5, Flag-RIG-I (full length) (human)
[5] = molecular target: T6, Flag-RIG-I-ΔRD (aa 1-794) (human)

binding [1]	binding (Flag-Riplet (human))	binding (Flag-Ube2D3 (human))	binding [2]	binding (Flag-Ube2N (human))	binding [3]	binding [4]	binding [5]	Binder
binds	–	–	–	–	–	–	–	HA-RIG-I, O95786 1-925 (protein) MTTEQRRSLQAFQDYIRKTLDPTYILSYMAPWFREEEVQYIQAEKNNKGPMEAATLFLKFLLELQEEGWFRGFLDALDHAGYSGLYEAIESWDFKKIEKLEEYRLLLKRLQPEFKTRIIPTDIISDLSECLINQECEEILQICSTKGMMAGAEKLVECLLRSDKENWPKTLKLALEKERNKFSELWIVEKGIKDVETEDLEDKMETSDIQIFYQEDPECQNLSENSCPPSEVSDTNLYSPFKPRNYQLELALPAMKGKNTIICAPTGCGKTFVSLLICEHHLKKFPQGQKGKVVFFANQIPVYEQQKSVFSKYFERHGYRVTGISGATAENVPVEQIVENNDIIILTPQILVNNLKKGTIPSLSIFTLMIFDECHNTSKQHPYNMIMFNYLDQKLGGSSGPLPQVIGLTASVGVGDAKNTDEALDYICKLCASLDASVIATVKHNLEELEQVVYKPQKFFRKVESRISDKFKYIIAQLMRDTESLAKRICKDLENLSQIQNREFGTQKYEQWIVTVQKACMVFQMPDKDEESRICKALFLYTSHLRKYNDALIISEHARMKDALDYLKDFFSNVRAAGFDEIEQDLTQRFEEKLQELESVSRDPSNENPKLEDLCFILQEEYHLNPETITILFVKTRALVDALKNWIEGNPKLSFLKPGILTGRGKTNQNTGMTLPAQKCILDAFKASGDHNILIATSVADEGIDIAQCNLVILYEYVGNVIKMIQTRGRGRARGSKCFLLTSNAGVIEKEQINMYKEKMMNDSILRLQTWDEAVFREKILHIQTHEKFIRDSQEKPKPVPDKENKKLLCRKCKALACYTADVRVIEECHYTVLGDAFKECFVSRPHPKPKQFSSFEKRAKIFCARQNCSHDWGIHVKYKTFEIPVIKIESFVVEDIATGVQTLYSKWKDFHFEKIPFDPAEMSK
–	binds	binds	binds	–	–	–	–	HA-RIG-I (protein, UniProt O95786 1-925) MTTEQRRSLQAFQDYIRKTLDPTYILSYMAPWFREEEVQYIQAEKNNKGPMEAATLFLKFLLELQEEGWFRGFLDALDHAGYSGLYEAIESWDFKKIEKLEEYRLLLKRLQPEFKTRIIPTDIISDLSECLINQECEEILQICSTKGMMAGAEKLVECLLRSDKENWPKTLKLALEKERNKFSELWIVEKGIKDVETEDLEDKMETSDIQIFYQEDPECQNLSENSCPPSEVSDTNLYSPFKPRNYQLELALPAMKGKNTIICAPTGCGKTFVSLLICEHHLKKFPQGQKGKVVFFANQIPVYEQQKSVFSKYFERHGYRVTGISGATAENVPVEQIVENNDIIILTPQILVNNLKKGTIPSLSIFTLMIFDECHNTSKQHPYNMIMFNYLDQKLGGSSGPLPQVIGLTASVGVGDAKNTDEALDYICKLCASLDASVIATVKHNLEELEQVVYKPQKFFRKVESRISDKFKYIIAQLMRDTESLAKRICKDLENLSQIQNREFGTQKYEQWIVTVQKACMVFQMPDKDEESRICKALFLYTSHLRKYNDALIISEHARMKDALDYLKDFFSNVRAAGFDEIEQDLTQRFEEKLQELESVSRDPSNENPKLEDLCFILQEEYHLNPETITILFVKTRALVDALKNWIEGNPKLSFLKPGILTGRGKTNQNTGMTLPAQKCILDAFKASGDHNILIATSVADEGIDIAQCNLVILYEYVGNVIKMIQTRGRGRARGSKCFLLTSNAGVIEKEQINMYKEKMMNDSILRLQTWDEAVFREKILHIQTHEKFIRDSQEKPKPVPDKENKKLLCRKCKALACYTADVRVIEECHYTVLGDAFKECFVSRPHPKPKQFSSFEKRAKIFCARQNCSHDWGIHVKYKTFEIPVIKIESFVVEDIATGVQTLYSKWKDFHFEKIPFDPAEMSK
–	–	binds	–	binds	binds	binds	binds	HA-Riplet (protein, UniProt Q8IUD6 1-432) MAGLGLGSAVPVWLAEDDLGCIICQGLLDWPATLPCGHSFCRHCLEALWGARDARRWACPTCRQGAAQQPHLRKNTLLQDLADKYRRAAREIQAGSDPAHCPCPGSSSLSSAAARPRRRPELQRVAVEKSITEVAQELTELVEHLVDIVRSLQNQRPLSESGPDNELSILGKAFSSGVDLSMASPKLVTSDTAAGKIRDILHDLEEIQEKLQESVTWKEAPEAQMQGELLEAPSSSSCPLPDQSHPALRRASRFAQWAIHPTFNLKSLSCSLEVSKDSRTVTVSHRPQPYRWSCERFSTSQVLCSQALSSGKHYWEVDTRNCSHWAVGVASWEMSRDQVLGRTMDSCCVEWKGTSQLSAWHMVKETVLGSDRPGVVGIWLNLEEGKLAFYSVDNQEKLLYECTISASSPLYPAFWLYGLHPGNYLIIKQVKV
